{"source": "the supplement of paper PMC6411743", "test_in_all_cases": "NP40-soluble protein abundance relative to vehicle (solubility fold change) (ratio); higher = more soluble protein in presence of GTP", "key": {"[1]": {"target": "T1, A8K878 and related entries (UniProt P55145)", "T1 sequence (whole entry)": "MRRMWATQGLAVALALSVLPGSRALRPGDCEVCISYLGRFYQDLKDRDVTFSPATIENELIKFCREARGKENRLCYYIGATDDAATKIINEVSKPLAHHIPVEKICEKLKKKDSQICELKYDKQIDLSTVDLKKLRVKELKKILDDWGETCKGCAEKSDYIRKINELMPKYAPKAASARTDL", "in_short": "(§1)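 Eight concentrations, 0.1 to 10 mM, were tested on Jurkat crude lysate for 10 min at room temperature and then 3 min at 37 °C, in three independent experiments. The lysate was solubilised with 0.8% NP40 and benzonase, ultracentrifuged, and the supernatant TMT-labelled for LC-MS/MS. Each value is the fold change against the detergent-processed vehicle in its own replicate, from vsn-normalised intensities.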"}, "[2]": {"target": "T2, B1ALK7 and related entries (UniProt Q14155)", "T2 sequence (whole entry)": "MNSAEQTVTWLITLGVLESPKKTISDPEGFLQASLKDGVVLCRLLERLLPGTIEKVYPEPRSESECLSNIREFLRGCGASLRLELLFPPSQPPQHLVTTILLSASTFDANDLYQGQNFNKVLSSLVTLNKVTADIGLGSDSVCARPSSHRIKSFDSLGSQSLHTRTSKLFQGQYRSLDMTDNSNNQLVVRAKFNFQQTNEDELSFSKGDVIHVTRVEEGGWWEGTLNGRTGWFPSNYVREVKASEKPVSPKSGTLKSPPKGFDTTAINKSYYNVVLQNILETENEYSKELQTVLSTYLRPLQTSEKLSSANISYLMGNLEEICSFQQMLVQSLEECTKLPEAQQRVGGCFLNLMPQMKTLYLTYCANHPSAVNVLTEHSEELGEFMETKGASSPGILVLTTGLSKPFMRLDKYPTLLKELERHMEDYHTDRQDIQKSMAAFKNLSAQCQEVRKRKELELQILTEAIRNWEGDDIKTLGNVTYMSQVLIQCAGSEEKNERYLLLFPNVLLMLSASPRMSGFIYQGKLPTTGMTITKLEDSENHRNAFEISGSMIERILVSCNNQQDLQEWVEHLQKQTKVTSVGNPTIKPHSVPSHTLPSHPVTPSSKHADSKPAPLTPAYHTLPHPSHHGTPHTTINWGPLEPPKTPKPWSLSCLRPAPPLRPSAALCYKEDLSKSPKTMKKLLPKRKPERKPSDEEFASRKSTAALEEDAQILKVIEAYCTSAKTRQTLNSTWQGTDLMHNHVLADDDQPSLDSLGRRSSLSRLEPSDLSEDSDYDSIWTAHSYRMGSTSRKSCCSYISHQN", "in_short": "as §1"}, "[3]": {"target": "T3, B4DH95 and related entries (UniProt Q6P9H5)", "T3 sequence (whole entry)": "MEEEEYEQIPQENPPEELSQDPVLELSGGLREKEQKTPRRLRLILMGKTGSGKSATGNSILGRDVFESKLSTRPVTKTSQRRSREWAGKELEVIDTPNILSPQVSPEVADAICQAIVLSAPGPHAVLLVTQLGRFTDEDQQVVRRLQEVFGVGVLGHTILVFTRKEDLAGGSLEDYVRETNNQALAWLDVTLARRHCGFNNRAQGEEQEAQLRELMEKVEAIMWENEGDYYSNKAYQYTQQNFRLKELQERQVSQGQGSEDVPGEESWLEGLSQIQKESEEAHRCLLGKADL", "in_short": "as §1"}, "[4]": {"target": "T4, B4DI03 and related entries (UniProt Q9BY50)", "T4 sequence (whole entry)": "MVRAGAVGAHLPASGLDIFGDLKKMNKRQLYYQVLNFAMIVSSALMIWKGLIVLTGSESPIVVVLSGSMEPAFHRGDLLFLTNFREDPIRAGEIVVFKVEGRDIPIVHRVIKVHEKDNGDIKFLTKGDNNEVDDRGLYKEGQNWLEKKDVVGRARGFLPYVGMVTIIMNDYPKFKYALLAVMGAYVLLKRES", "in_short": "as §1"}}, "note": "± gives the standard deviation of the averaged measurements. The list shows a part of the results.", "data": [{"smiles": "Nc1nc2c(ncn2[C@@H]2O[C@H](COP(=O)(O)OP(=O)(O)OP(=O)(O)O)[C@@H](O)[C@H]2O)c(=O)[nH]1", "note": "[guanosine triphosphate]", "values": [{"measurement": "NP40-soluble protein abundance", "setting": "[1]; concentration: 0.1mM", "value": "0.783 ± 0.024"}, {"measurement": "NP40-soluble protein abundance", "setting": "[1]; concentration: 0.5mM", "value": "0.756 ± 0.026"}, {"measurement": "NP40-soluble protein abundance", "setting": "[1]; concentration: 1mM", "value": "0.967 ± 0.038"}, {"measurement": "NP40-soluble protein abundance", "setting": "[1]; concentration: 2mM", "value": "0.925 ± 0.055"}, {"measurement": "NP40-soluble protein abundance", "setting": "[1]; concentration: 4mM", "value": "0.925 ± 0.049"}, {"measurement": "NP40-soluble protein abundance", "setting": "[1]; concentration: 6mM", "value": "0.896 ± 0.043"}, {"measurement": "NP40-soluble protein abundance", "setting": "[1]; concentration: 8mM", "value": "0.824 ± 0.12"}, {"measurement": "NP40-soluble protein abundance", "setting": "[1]; concentration: 10mM", "value": "0.956 ± 0.036"}, {"measurement": "NP40-soluble protein abundance", "setting": "[2]; concentration: 0.1mM", "value": "0.994 ± 0.036"}, {"measurement": "NP40-soluble protein abundance", "setting": "[2]; concentration: 0.5mM", "value": "0.9903 ± 0.0023"}, {"measurement": "NP40-soluble protein abundance", "setting": "[2]; concentration: 1mM", "value": "1.004 ± 0.007"}, {"measurement": "NP40-soluble protein abundance", "setting": "[2]; concentration: 2mM", "value": "1.01 ± 0.028"}, {"measurement": "NP40-soluble protein abundance", "setting": "[2]; concentration: 4mM", "value": "0.996 ± 0.015"}, {"measurement": "NP40-soluble protein abundance", "setting": "[2]; concentration: 6mM", "value": "0.9797 ± 0.0044"}, {"measurement": "NP40-soluble protein abundance", "setting": "[2]; concentration: 8mM", "value": "1 ± 0.033"}, {"measurement": "NP40-soluble protein abundance", "setting": "[2]; concentration: 10mM", "value": "0.977 ± 0.046"}, {"measurement": "NP40-soluble protein abundance", "setting": "[3]; concentration: 0.1mM", "value": "1.12 ± 0.051"}, {"measurement": "NP40-soluble protein abundance", "setting": "[3]; concentration: 0.5mM", "value": "1.07 ± 0.079"}, {"measurement": "NP40-soluble protein abundance", "setting": "[3]; concentration: 1mM", "value": "0.99 ± 0.042"}, {"measurement": "NP40-soluble protein abundance", "setting": "[3]; concentration: 2mM", "value": "1.02 ± 0.11"}, {"measurement": "NP40-soluble protein abundance", "setting": "[3]; concentration: 4mM", "value": "1.03 ± 0.055"}, {"measurement": "NP40-soluble protein abundance", "setting": "[3]; concentration: 6mM", "value": "0.991 ± 0.044"}, {"measurement": "NP40-soluble protein abundance", "setting": "[3]; concentration: 8mM", "value": "0.953 ± 0.02"}, {"measurement": "NP40-soluble protein abundance", "setting": "[3]; concentration: 10mM", "value": "0.974 ± 0.085"}, {"measurement": "NP40-soluble protein abundance", "setting": "[4]; concentration: 0.1mM", "value": "0.955 ± 0.055"}, {"measurement": "NP40-soluble protein abundance", "setting": "[4]; concentration: 0.5mM", "value": "0.952 ± 0.031"}, {"measurement": "NP40-soluble protein abundance", "setting": "[4]; concentration: 1mM", "value": "0.905 ± 0.052"}, {"measurement": "NP40-soluble protein abundance", "setting": "[4]; concentration: 2mM", "value": "0.881 ± 0.07"}]}]}
